Assay [1] deals with T1, FBXL10 (human (endogenous in HeLa)) (UniProt Q8NHM5).
T1 sequence: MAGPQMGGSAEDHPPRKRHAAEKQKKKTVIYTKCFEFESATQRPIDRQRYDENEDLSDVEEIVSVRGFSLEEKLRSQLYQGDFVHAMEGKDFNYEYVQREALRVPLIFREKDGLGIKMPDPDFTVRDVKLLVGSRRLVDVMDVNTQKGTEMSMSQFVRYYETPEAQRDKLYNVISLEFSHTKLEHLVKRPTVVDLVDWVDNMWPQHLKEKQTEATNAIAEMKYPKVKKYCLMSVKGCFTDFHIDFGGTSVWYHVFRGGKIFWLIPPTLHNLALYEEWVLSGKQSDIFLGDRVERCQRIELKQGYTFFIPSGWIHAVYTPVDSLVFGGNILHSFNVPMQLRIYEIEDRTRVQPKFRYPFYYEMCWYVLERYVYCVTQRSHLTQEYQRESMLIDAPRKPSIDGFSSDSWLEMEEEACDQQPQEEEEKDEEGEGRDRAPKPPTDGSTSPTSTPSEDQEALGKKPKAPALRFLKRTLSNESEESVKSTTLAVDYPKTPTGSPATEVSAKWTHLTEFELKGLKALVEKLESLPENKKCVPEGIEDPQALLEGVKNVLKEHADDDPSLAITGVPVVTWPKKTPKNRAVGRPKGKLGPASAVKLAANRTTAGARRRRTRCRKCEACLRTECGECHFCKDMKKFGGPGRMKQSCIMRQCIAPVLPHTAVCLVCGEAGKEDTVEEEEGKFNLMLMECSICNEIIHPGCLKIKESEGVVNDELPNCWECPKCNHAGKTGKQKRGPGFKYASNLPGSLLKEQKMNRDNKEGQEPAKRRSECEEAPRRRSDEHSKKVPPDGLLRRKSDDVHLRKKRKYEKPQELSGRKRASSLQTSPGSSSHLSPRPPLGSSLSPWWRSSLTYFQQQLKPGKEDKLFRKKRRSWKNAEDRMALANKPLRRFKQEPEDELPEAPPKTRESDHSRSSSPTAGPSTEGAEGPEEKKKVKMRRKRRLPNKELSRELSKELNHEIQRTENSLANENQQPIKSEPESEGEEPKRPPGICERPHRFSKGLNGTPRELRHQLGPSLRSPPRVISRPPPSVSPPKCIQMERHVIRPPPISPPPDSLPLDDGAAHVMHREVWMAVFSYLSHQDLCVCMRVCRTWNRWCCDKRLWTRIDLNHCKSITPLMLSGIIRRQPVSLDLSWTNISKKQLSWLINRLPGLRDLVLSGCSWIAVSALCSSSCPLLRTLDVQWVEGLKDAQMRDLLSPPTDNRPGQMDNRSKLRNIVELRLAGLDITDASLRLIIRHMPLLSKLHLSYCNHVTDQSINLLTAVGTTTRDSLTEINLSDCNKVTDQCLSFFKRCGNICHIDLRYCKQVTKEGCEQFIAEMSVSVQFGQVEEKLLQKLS
Nature of the assay: affinity purification with mass spectrometry; MS of anti-CUL9 and anti-FBXL10 immunoprecipitates from M-phase HeLa cell lysates.

Chains of the proteins cited; added tags and fusions are not shown. Residues count along the entry.
UniProt Q8IWT3: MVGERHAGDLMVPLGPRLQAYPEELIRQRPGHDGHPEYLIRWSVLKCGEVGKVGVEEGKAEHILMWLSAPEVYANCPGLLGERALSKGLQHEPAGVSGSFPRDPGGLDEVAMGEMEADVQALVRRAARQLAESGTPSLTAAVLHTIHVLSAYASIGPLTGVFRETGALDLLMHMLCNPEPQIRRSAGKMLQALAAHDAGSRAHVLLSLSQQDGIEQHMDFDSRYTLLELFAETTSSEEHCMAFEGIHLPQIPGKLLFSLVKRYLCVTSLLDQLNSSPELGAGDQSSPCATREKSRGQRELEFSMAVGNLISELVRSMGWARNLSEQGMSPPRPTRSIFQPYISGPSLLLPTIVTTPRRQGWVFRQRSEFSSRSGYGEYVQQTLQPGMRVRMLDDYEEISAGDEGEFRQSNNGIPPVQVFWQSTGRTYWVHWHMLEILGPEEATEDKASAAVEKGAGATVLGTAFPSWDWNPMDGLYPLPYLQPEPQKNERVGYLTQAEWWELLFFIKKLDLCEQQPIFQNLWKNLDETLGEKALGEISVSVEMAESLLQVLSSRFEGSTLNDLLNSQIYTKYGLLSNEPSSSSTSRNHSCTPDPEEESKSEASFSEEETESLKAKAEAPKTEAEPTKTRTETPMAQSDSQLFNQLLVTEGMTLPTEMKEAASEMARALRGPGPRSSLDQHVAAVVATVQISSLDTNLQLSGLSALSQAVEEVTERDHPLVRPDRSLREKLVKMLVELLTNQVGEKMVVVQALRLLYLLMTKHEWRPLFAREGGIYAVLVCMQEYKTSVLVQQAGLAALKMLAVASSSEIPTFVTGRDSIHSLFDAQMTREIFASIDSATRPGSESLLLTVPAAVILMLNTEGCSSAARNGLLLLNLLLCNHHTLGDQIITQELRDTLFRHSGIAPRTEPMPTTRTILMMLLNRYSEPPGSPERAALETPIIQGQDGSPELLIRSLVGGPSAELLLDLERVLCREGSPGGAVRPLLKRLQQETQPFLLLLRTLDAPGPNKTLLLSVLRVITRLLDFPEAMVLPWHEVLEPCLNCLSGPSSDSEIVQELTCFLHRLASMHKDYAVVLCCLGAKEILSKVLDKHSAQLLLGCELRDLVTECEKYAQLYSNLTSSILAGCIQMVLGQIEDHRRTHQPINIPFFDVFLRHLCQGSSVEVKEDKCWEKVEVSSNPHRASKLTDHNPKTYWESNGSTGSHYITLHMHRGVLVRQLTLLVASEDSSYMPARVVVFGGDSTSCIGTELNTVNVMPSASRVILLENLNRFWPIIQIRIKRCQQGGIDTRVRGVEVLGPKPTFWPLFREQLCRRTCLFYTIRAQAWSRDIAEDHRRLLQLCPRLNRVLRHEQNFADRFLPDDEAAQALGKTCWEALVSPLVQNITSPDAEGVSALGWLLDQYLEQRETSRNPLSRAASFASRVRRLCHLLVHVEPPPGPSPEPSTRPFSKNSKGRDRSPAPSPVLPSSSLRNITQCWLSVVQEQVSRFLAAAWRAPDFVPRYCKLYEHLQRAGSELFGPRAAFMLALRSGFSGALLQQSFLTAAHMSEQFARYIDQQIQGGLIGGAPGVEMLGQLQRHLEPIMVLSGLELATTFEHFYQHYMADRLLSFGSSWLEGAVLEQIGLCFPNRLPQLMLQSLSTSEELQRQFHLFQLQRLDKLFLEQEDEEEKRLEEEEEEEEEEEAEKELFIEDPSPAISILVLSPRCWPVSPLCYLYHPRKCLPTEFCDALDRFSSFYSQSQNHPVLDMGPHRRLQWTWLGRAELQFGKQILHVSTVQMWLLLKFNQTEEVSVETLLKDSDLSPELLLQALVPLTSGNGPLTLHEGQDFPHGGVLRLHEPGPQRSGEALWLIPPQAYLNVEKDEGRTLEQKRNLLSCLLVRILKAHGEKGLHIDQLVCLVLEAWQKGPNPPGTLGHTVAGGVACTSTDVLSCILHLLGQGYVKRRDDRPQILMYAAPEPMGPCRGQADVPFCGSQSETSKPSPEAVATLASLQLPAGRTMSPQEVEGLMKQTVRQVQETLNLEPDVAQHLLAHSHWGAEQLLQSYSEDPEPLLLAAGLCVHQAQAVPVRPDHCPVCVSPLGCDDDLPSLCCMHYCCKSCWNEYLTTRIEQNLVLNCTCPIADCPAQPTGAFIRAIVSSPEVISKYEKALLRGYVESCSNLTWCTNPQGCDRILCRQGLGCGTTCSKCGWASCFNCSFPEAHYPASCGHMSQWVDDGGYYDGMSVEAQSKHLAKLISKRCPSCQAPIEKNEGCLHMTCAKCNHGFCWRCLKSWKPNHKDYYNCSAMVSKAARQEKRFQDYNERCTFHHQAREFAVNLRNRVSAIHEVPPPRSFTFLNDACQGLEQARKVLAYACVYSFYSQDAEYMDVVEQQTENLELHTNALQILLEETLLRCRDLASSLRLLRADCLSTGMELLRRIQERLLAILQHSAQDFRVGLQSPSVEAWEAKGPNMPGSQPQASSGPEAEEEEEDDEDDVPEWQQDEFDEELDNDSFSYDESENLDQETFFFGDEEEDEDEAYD
UniProt Q15843, residues 1-76: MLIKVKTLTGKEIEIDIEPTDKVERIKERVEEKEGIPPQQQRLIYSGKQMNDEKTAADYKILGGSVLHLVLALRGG
UniProt P63208: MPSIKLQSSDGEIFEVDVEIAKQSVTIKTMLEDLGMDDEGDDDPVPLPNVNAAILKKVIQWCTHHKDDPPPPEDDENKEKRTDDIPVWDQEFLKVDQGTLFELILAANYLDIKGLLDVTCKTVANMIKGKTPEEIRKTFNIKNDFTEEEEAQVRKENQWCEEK

Assay [2] has as its target cullin 9 (CUL9) (human (endogenous in HeLa)) (UniProt Q8IWT3). The description is as above.

No constants are given. Whether binding was seen depends on the method and setting. Binding seen in cells or lysates may run through a third protein. Here binding means that the protein was enriched with, or labelled near, the bait; the list need not be complete.

For the substance NEDD8 (from UniProt Q15843 1-76), the binding result in assay [1] and in assay [2] was “binds” throughout.
Turning to SKP1 (from UniProt P63208 1-163), the binding result in assay [1] and in assay [2] was “binds” throughout.

For the origin of these results see article PMC9106588.
